Reference: US11186651B2, “Monoclonal antibody for the detection of the antiretroviral drug emtricitabine (FTC, 2′,3′-dideoxy-5-fluoro-3′-thiacytidine)” (THE UNITED STATES OF AMERICA, AS REPRESENTED BY THE …, priority 2018, dated 2021)

Test system: 5D2 antibody

**Q.** With `Nc1nc(=O)n([C@@H]2CS[C@H](CO)O2)cc1F` [FTC] as the compound, how does the “detection of FTC in urine by the 5D2-based competitive assay” value (urine) read?
**A.** The value was “detected”.

**Q.** And the “effective limit of detection” value (urine diluted 1:4 in 0.1M Tris-HCl pH 8.0 plus 1% BSA, spiked FTC)?
**A.** The value was about 5 µg/mL.
